# The other results are listed elsewhere or left out. Shown are side measurements of this screen, not its main read-out; they come without a call. The list favours compounds with an active or inconclusive main result. The note in brackets gives the kind of curve behind each potency; many fits are weak.
# Test: qHTS Assay for Lipid Storage Modulators in Drosophila S3 Cells;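 as to cell number change: cells counted by Cell Tracker Red CMTPX staining in the red channel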
# Details: BODIPY lipid droplet fluorescence, 18-24 h; for cell number change: measured here: cell count max response, cells fed with added oleic acid
# In short: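 Laser-scanning cytometry quantifies lipid droplet accumulation (500–530 nm total intensity; droplet/cell object ratio) in oleic acid-fed (400 uM added) Drosophila S3 cells treated with a concentration series. 20 uM Triacsin C defined 100% inhibition.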
# [1] = measured here: cell number channel AC50, cells fed with added oleic acid
# [2] = measured here: lipid fluorescence (Fed channel) AC50, cells fed with added oleic acid
SMILES,cell number change,AC50 [1],AC50 [2]
Cc1cc(Br)ccc1NC(=O)c1sc2ncnc(N3CCN(c4ccccn4)CC3)c2c1C,33.1%,"14.6 µM [rising, single point]","29.1 µM [falling, single point]"
CCCN(CCO)Cc1cccc(Oc2ccccc2)c1,-9.72%,–,"3.26 µM [falling, full curve]"
CCOC(=O)n1c(=O)n(Cc2cccc(F)c2)c2ccccc21,46.3%,"29.1 µM [rising, single point]","29.1 µM [rising, single point]"
COc1ccccc1CCNC(=O)Cn1ccc2cc(S(=O)(=O)N3CCC(C)CC3)ccc21,11.6%,–,–
COc1ccc(-c2noc(CCC(=O)Nc3ccc(C)c(C)c3)n2)cc1,-27.1%,–,"1.3 µM [falling, full curve, poor fit]"
COC(=O)c1sc(NC(=S)NC(=O)c2ccccc2Cl)nc1C,1.41%,–,"0.184 µM [rising, full curve]"
O=[N+]([O-])c1ccccc1SN(Cc1ccccc1)c1ccccn1,8.01%,–,"29.1 µM [rising, single point]"
Cc1cccc(CNC(=O)C2CCC(=O)N(C3CCCC3)C2)c1 (configuration not stated),15.2%,–,–
CC(=O)c1cccc(NC(=O)c2cccc(NC(=O)c3ccco3)c2)c1,38.1%,"0.00651 µM [rising, full curve, poor fit]",–
CC(C(=O)NCCCN1CCOCC1)n1cccc1C(=O)c1ccccc1 (configuration not stated),22.4%,–,"14.6 µM [rising, partial curve, poor fit]"
CCOC(=O)c1nc[nH]c1C,-0.773%,–,–
O=C(Nc1cc(S(=O)(=O)Nc2ccccc2Cl)ccc1O)c1sc2cc(Cl)ccc2c1Cl,-19.7%,–,"4.11 µM [falling, single point]"
CCCCc1cc(=O)oc2c(C)c(OCC(=O)N3CCC(C(=O)O)(c4ccccc4)CC3)ccc12,-7.12%,–,"20.6 µM [rising, single point]"
CC(=O)Nc1ccc(NS(=O)(=O)c2ccc(CN3C(=O)c4cccnc4C3=O)cc2)cc1,-58%,"29.1 µM [falling, single point]",–
COc1ccc(N2CCN(C(=O)CN(CCc3ccccc3)S(C)(=O)=O)CC2)cc1,3.04%,"6.51 µM [falling, single point]","11.6 µM [falling, partial curve]"
Oc1ccccc1N1CCN(CC(O)COC2CCCc3ccccc32)CC1 (configuration not stated),15.6%,–,"9.2 µM [falling, partial curve]"
Cc1ccc2c(c1)N(CC(=O)N1CCCCC1)C(=O)C(C)O2 (configuration not stated),10.8%,–,–
CCOC(=O)c1c(-c2ccccc2)csc1N1C(=O)Nc2ccccc2N1O,2.48%,"0.58 µM [falling, single point]","0.326 µM [falling, partial curve, poor fit]"
CC1CCN(C(=S)Nc2ccc(F)cc2)CC1,–,–,"13 µM [rising, single point]"
CCOc1ccccc1-n1nnnc1SCC(=O)OC,-24.2%,–,"29.1 µM [falling, single point]"

# As entered above.
# CCCCc1cc(=O)oc2c(C)c(OCC(=O)N3CCC(C(=O)O)(c4ccccc4)CC3)ccc12 | AC50 [2]: 20.6 µM [rising, single point]
# CC(=O)Nc1ccc(NS(=O)(=O)c2ccc(CN3C(=O)c4cccnc4C3=O)cc2)cc1 | cell number change: -58%
# COc1ccc(-c2noc(CCC(=O)Nc3ccc(C)c(C)c3)n2)cc1 | AC50 [2]: 1.3 µM [falling, full curve, poor fit]

# (list continues)

SMILES,cell number change,AC50 [1],AC50 [2]
CCN1CCN(C(=O)c2ccc3c(=O)n(C4CCCC4)c(=S)[nH]c3c2)CC1,–,–,"2.91 µM [rising, single point]"
CCN(CC)C(=O)C(C)N(C#N)c1nc(Cl)nc(N(C)C)n1 (configuration not stated),-30.6%,"3.66 µM [falling, full curve, poor fit]","29.1 µM [falling, single point]"
COc1ccc(-n2nc(C(=O)NCC(=O)NCc3ccc(F)cc3)c3ccccc3c2=O)cc1,-2.7%,–,"0.651 µM [rising, partial curve, poor fit]"
COc1ccc(CCNC(=O)CN2C(=O)COc3ccc(S(=O)(=O)N4CCCC4)cc32)cc1OC,-8.87%,–,–
CCNc1nc(NCC)nc(N/N=C/c2ccc(OC)cc2)n1,9.36%,–,–
Cc1c(/C(O)=C2\C(=O)C(=O)N(CCCN(C)C)C2c2ccccc2)cnn1-c1ccccc1 (configuration not stated),6.6%,–,"1.64 µM [falling, partial curve, poor fit]"
COc1cc2c(cc1OC)-c1cc(Nc3cccc(F)c3)nc(=O)n1CC2,-4.17%,–,–
CC(=O)Nc1ccc(NC(=O)[C@@H]2CCCC[C@@H]2C(=O)O)cc1,19.3%,"1.84 µM [falling, partial curve, poor fit]","1.84 µM [falling, partial curve, poor fit]"
O=S(Cc1ccccc1)CC(O)(c1ccc(Cl)cc1)c1ccc(Cl)cc1 (configuration not stated),-33.6%,"29.1 µM [falling, single point]","25.9 µM [falling, single point]"
COc1ccc(CCNC(=O)c2c[nH]c3ccccc3c2=O)cc1OC,-29.6%,–,"18.4 µM [falling, single point]"
Cc1cnc(NC(=O)C2CCCC2)s1,-18.8%,"3.66 µM [falling, single point]","25.9 µM [falling, single point]"
CC(C(N)=O)N1C(=O)C2C3C=CC(C3)C2C1=O (configuration not stated),–,"3.26 µM [falling, single point]",–
Oc1ccccc1/C=N/Nc1nccnc1Cl,-36.4%,"0.259 µM [falling, full curve]",–
O=C(COC(=O)C1=COCCO1)NC(=O)c1ccc(OC(F)F)cc1,–,"0.013 µM [falling, full curve, poor fit]",–
CC1CCN(CCCNC(=O)c2cc3c(=O)n(C)c4ccccc4c3n2C)CC1,32.9%,"20.6 µM [rising, single point]","20.6 µM [rising, partial curve]"
COCCN(Cc1cc2cc3c(cc2nc1Cl)OCO3)C(=O)Nc1ccc(OC)cc1,25.6%,"0.291 µM [rising, full curve, poor fit]","0.00517 µM [rising, full curve, poor fit]"
O=C(C1=C[C@@H](c2ccc(Br)cc2)C[C@@H](OCc2ccc(CO)cc2)O1)N1CCN(Cc2ccc3c(c2)OCO3)CC1,-25.5%,–,"2.91 µM [rising, single point]"
CCn1nc(CC(=O)Nc2nnc(CC(=O)N3CCOCC3)s2)c2ccccc2c1=O,43.4%,"29.1 µM [rising, single point]","9.2 µM [falling, partial curve]"
CCN(CC(=O)Nc1ccc(NC(C)=O)cc1)C(=O)c1n[nH]c(=O)c2ccccc12,22.8%,–,–
O=C(Cc1ccccc1F)Nc1nc(-c2ccc(F)cc2)cs1,-2.25%,–,–

SMILES,cell number change,AC50 [1],AC50 [2]
CC1CCN(CCCCOc2ccccc2Br)CC1,16.1%,"0.259 µM [rising, full curve]","1.16 µM [rising, full curve, poor fit]"
COc1ccc(C)cc1S(=O)(=O)N1CCCC(C(=O)NC2CC2)C1 (configuration not stated),7.92%,–,"3.66 µM [falling, full curve]"
Cc1ccc(NS(=O)(=O)c2cc(C(=O)NCc3cccnc3)ccc2C)cc1,2.89%,–,–
COc1ccc(N2C(=O)C3CCCN3C2c2cccc(C)c2)cc1 (configuration not stated),8.55%,–,"0.0058 µM [falling, full curve, poor fit]"
CC1N(O)C(c2ccc(Cl)cc2Cl)N(O)C1(C)C (configuration not stated),-6.64%,"4.61 µM [falling, single point]","4.11 µM [rising, full curve, poor fit]"
CCOc1ccccc1-c1nc(-c2ccncc2)no1,2.59%,"1.84 µM [rising, partial curve]",–
O=C1CCc2cc(S(=O)(=O)NC(Cc3ccccc3)C(=O)NCCC3=CCCCC3)ccc2N1 (configuration not stated),9.29%,–,"7.31 µM [rising, partial curve, poor fit]"
O=C(Cn1ncc2c([nH]c3ccccc32)c1=O)NCCc1ccc(Cl)cc1,33.8%,"0.058 µM [rising, full curve, poor fit]","29.1 µM [rising, single point]"
Cc1c(C=O)c2cc(OCc3ccccc3)ccc2n1C,-27.5%,–,–
COCCn1c(C)cc(C(=O)CSc2ccc3ccccc3n2)c1C,61.2%,"29.1 µM [rising, single point]",–
CCOc1ccc(NC(=O)C(CC)n2nc(C)c3c(C)n(-c4ccccc4)nc3c2=O)cc1 (configuration not stated),23.6%,–,–
O=C(C1=C(O)C(=O)N(CCN2CCOCC2)C1c1ccncc1)c1ccco1 (configuration not stated),8.59%,–,"29.1 µM [falling, single point]"
CC(=O)N1CCN(CCN(CC2C(C)C=C(C)CC2C)C(C)=O)CC1 (configuration not stated),-10.1%,"0.146 µM [falling, full curve, poor fit]","5.8 µM [falling, full curve, poor fit]"
CCn1c(SCc2ccc(C)cc2)nnc1-c1cnccn1,0.458%,–,"11.6 µM [rising, partial curve]"
CC(=O)c1cc(F)ccc1OCC(=O)N1CCCc2ccccc21,18.1%,–,"29.1 µM [falling, single point]"
COCCNC(=O)COc1ccccc1C,18.2%,–,"6.51 µM [rising, single point]"
CCOc1ccc(NC(=O)CSc2nnnn2C2CCCC2)cc1,6.67%,–,"3.66 µM [rising, full curve]"
O=C1/C(=C\c2ccc(O)c(O)c2)N=C2CCCCCN12,-30.9%,–,–
Cc1cccc(NC(=O)c2cc([N+](=O)[O-])ccc2Cl)c1O,98.2%,–,–
CCCCOC(=O)NC(NCC(O)c1ccccc1)(C(F)(F)F)C(F)(F)F (configuration not stated),–,"0.731 µM [falling, single point]","8.2 µM [falling, partial curve, poor fit]"

# Full records, quoted from the list. Order of values: cell number change | AC50 [1] | AC50 [2]
# O=C1CCc2cc(S(=O)(=O)NC(Cc3ccccc3)C(=O)NCCC3=CCCCC3)ccc2N1 (configuration not stated) as listed: 9.29% | – | 7.31 µM [rising, partial curve, poor fit]
# CCOc1ccc(NC(=O)CSc2nnnn2C2CCCC2)cc1 as listed: 6.67% | – | 3.66 µM [rising, full curve]
